# From patent US9670192B2 (priority 2013, dated 2017)
# Some entries share one result that the patent states for a list of compounds.
# Tests used:
# Pyricularia oryzae = format: cell-based; details: 31 ppm, 405 nm, 7 days after inoculation, compound-free control = 100%
# Phakopsora pachyrhizi = assay: G3 Protective control of soy bean rust on soy beans (Phakpa P1), green house; format: in vivo, Phakopsora pachyrhizi on soy beans; details: 150 ppm active substance, sprayed 1 day before inoculation, soy bean seedlings; untreated plants 90% infected
# Puccinia recondita = assay: G1 Preventative control of brown rust on wheat (Puccrt P7), green house; format: in vivo, Puccinia recondita on wheat; details: 250 ppm active substance, sprayed 7 days before inoculation, wheat seedlings; untreated plants 90% infected
# Septoria tritici [1] = assay: M3 Activity against leaf blotch on wheat caused by Septoria tritici in the microtiterplate test (Septtr); format: cell-based; details: 31 ppm, 405 nm, 7 days after inoculation, compound-free control = 100%
# Septoria tritici [2] = assay: G2 Preventative control of leaf blotch on wheat (Septtr P1), green house; format: in vivo, Septoria tritici on wheat; details: 150 ppm active substance, sprayed 1 day before inoculation, wheat seedlings, assessed after 4 weeks; untreated plants 100% infected
# Botrytis cinerea = assay: M1 Activity against the grey mold Botrytis cinerea in the microtiterplate test (Botrci); format: cell-based; details: 31 ppm, 405 nm, 7 days after inoculation, compound-free control = 100%
SMILES,relative growth of the pathogen (Pyricularia oryzae),infection (% diseased leaf area) (Phakopsora pachyrhizi),infection (% diseased leaf area) (Puccinia recondita),relative growth of the pathogen (Septoria tritici [1]),infection (% diseased leaf area) (Septoria tritici [2]),relative growth of the pathogen (Botrytis cinerea)
"OC1(Cn2cncn2)C(c2ccc(Oc3ccc(Cl)cc3)cc2)=NOC12CCCCC2 (stereo not drawn) [Compound I-1, 2-[4-(4-chlorophenoxy)phenyl]-1-(1,2,4-triazol-1-ylmethyl)-4-oxa-3-azaspiro[4.5]dec-2-en-1-ol]",≤ 9%,at most 10%,at most 1%,≤ 11%,at most 10%,≤ 12%
"COC1(Cn2cncn2)C(c2ccc(Oc3ccc(Cl)cc3)cc2)=NOC12CCCCC2 (stereo not drawn) [Compound I-2, 2-[4-(4-chlorophenoxy)phenyl]-1-methoxy-1-(1,2,4-triazol-1-ylmethyl)-4-oxa-3-azaspiro[4.5]dec-2-ene]",≤ 9%,,,≤ 11%,at most 10%,
CC1(C)ON=C(c2ccc(Oc3ccc(Cl)cc3)cc2Cl)C1(O)Cn1cncn1 (stereo not drawn) [Compound I-3],≤ 9%,,at most 1%,≤ 11%,at most 10%,≤ 12%
COC1(Cn2cncn2)C(c2ccc(Oc3ccc(Cl)cc3)cc2Cl)=NOC1(C)C (stereo not drawn) [Compound I-4],≤ 9%,,,≤ 11%,at most 10%,≤ 12%
OC1(Cn2cncn2)C(c2ccc(Oc3ccc(Cl)cc3)cc2Cl)=NOC12CCCCC2 (stereo not drawn) [Compound I-5],≤ 9%,at most 10%,at most 1%,,at most 10%,≤ 12%
CC1(C)ON=C(c2ccc(Oc3ccc(Cl)cc3)cc2)C1(O)Cn1cncn1 (stereo not drawn) [Compound I-6],≤ 9%,at most 10%,,≤ 11%,at most 10%,≤ 12%
COC1(Cn2cncn2)C(c2ccc(Oc3ccc(Cl)cc3)cc2Cl)=NOC12CCCCC2 (stereo not drawn) [Compound I-7],≤ 9%,,at most 1%,,at most 10%,
COC1(Cn2cncn2)C(c2ccc(Oc3ccc(Cl)cc3)cc2)=NOC1(C)C (stereo not drawn) [Compound I-8],≤ 9%,at most 10%,at most 1%,≤ 11%,at most 10%,≤ 12%
CC1(C)ON=C(c2ccc(Oc3ccc(Cl)cc3)cc2)C1(O)Cn1ccnc1 (stereo not drawn) [Compound I-9],≤ 9%,,,≤ 11%,,
